Data from patent EP2929785A1, “A PLA inhibitor for inhibition of fat absorption” (PAT GmbH, priority 2014, dated 2015).
Results are given in words; binding and its absence hold for the method and conditions named. For some assays here: Binding seen in cells or lysates may run through a third protein. Some results given as binding are weak or reduced against the parent protein; the word gives no strength.

Amino acid sequences for entries named in this document (tags omitted). Residues count along the entry.
UniProt Q03135, residues 2-178: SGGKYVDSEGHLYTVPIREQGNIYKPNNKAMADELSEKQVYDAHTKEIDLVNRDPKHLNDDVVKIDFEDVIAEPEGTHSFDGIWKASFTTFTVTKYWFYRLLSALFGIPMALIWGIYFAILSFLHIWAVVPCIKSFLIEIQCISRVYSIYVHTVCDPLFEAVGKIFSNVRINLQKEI
UniProt P16671, residues 2-472: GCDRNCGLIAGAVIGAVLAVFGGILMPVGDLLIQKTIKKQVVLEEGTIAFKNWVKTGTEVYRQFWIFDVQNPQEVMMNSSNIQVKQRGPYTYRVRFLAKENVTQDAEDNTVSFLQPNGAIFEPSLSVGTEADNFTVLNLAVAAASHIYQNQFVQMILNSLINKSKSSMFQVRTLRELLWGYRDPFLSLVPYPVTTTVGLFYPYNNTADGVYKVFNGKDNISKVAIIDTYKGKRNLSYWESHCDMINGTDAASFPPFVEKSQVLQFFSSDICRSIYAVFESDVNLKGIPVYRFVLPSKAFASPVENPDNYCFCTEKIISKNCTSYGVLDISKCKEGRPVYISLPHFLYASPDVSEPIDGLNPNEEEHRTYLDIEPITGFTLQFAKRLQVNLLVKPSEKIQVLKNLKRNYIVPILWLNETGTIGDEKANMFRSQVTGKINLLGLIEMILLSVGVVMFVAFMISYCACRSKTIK

Legend:
caveolin-1 (human) [1] = target: caveolin-1 (human) (UniProt Q03135); test: co-immunoprecipitation from HepG2 DRM-PM, western blot (legend of Figure 3)
[2] = target: T1, plasma membrane fatty acid-binding protein (FABPPM) (human) (UniProt P00505); test: as above
T1 sequence (looked up): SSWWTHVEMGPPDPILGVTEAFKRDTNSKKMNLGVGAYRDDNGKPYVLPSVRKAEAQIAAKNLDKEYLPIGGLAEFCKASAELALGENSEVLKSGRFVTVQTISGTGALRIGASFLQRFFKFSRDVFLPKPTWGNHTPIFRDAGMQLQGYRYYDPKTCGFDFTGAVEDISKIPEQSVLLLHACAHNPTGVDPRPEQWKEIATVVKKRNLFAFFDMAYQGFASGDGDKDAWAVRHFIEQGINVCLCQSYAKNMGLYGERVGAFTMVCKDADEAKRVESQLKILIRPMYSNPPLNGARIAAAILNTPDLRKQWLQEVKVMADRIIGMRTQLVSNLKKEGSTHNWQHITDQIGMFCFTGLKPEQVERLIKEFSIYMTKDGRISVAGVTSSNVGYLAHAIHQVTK

caveolin-1 (human) [3] = target: caveolin-1 (human) (UniProt Q03135); test: co-immunoprecipitation from HepG2 DRM-PM, western blot
[4] = target: T1, plasma membrane fatty acid-binding protein (FABPPM) (human); test: as above
caveolin-1 (human) [5] = target: caveolin-1 (human) (UniProt Q03135); test: co-immunoprecipitation from CaCo2 DRM plasma membrane domains, western blot
[6] = target: T1, plasma membrane fatty acid-binding protein (FABPPM) (human); test: as above
caveolin-1 (human) [7] = target: caveolin-1 (human) (UniProt Q03135); test: co-immunoprecipitation from HepG2 DRM-PM, western blot; remark: listed apart in the source
[8] = target: T1, plasma membrane fatty acid-binding protein (FABPPM) (human); test: as above; remark: listed apart in the source
[9] = target: CD36 (Cluster of Differentiation 36) (human) (UniProt P16671); test: as above
[10] = target: T2, calcium-independent membrane phospholipase A2 (iPLA2ß) (human) (UniProt O60733); test: as above
T2 sequence (looked up): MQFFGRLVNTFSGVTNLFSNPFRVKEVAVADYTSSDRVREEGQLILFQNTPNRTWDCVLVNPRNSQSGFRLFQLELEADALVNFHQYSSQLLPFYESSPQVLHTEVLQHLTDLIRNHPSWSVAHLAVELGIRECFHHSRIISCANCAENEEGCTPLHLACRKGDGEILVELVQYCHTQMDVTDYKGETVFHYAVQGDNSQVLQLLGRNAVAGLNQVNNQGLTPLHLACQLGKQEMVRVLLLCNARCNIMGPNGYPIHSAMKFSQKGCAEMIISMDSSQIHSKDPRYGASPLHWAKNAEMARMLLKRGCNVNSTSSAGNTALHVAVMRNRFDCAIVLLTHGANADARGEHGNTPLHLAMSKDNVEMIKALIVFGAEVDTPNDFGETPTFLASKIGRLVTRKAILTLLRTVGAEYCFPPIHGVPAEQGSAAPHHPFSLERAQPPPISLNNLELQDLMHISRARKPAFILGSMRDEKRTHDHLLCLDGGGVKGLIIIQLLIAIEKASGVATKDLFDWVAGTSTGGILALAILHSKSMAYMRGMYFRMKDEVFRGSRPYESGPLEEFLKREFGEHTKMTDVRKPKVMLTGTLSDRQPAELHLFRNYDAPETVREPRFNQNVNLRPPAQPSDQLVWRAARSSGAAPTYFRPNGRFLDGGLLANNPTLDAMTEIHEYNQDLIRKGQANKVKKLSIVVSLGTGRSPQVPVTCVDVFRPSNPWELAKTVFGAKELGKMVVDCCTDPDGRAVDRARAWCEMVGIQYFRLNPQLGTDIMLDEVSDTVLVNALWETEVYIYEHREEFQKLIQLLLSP

[11] = target: CD36 (Cluster of Differentiation 36) (human) (UniProt P16671); test: co-immunoprecipitation from HepG2 DRM-PM, western blot (legend of Figure 3)
[12] = target: CD36 (Cluster of Differentiation 36) (human) (UniProt P16671); test: co-immunoprecipitation from CaCo2 DRM plasma membrane domains, western blot
[13] = target: CD36 (Cluster of Differentiation 36) (human) (UniProt P16671); test: time-dependent complex disassembly after UDCA-LPE, immunoprecipitation of HepG2 DRM-PM and western blot (Fig. 5)

Measured: binding

CD36 (Cluster of Differentiation 36) (from UniProt P16671 2-472) (receptor)
binds: caveolin-1 (human) [1] | [2] | caveolin-1 (human) [3] | [4] | caveolin-1 (human) [5] | [6]

B1: plasma membrane fatty acid-binding protein (FABPPM) (protein, human, UniProt P00505 30-430, looked up)
chain: SSWWTHVEMGPPDPILGVTEAFKRDTNSKKMNLGVGAYRDDNGKPYVLPSVRKAEAQIAAKNLDKEYLPIGGLAEFCKASAELALGENSEVLKSGRFVTVQTISGTGALRIGASFLQRFFKFSRDVFLPKPTWGNHTPIFRDAGMQLQGYRYYDPKTCGFDFTGAVEDISKIPEQSVLLLHACAHNPTGVDPRPEQWKEIATVVKKRNLFAFFDMAYQGFASGDGDKDAWAVRHFIEQGINVCLCQSYAKNMGLYGERVGAFTMVCKDADEAKRVESQLKILIRPMYSNPPLNGARIAAAILNTPDLRKQWLQEVKVMADRIIGMRTQLVSNLKKEGSTHNWQHITDQIGMFCFTGLKPEQVERLIKEFSIYMTKDGRISVAGVTSSNVGYLAHAIHQVTK
binds: caveolin-1 (human) [1] | caveolin-1 (human) [5] | caveolin-1 (human) [7]

B2: flotilin1 (protein, human, UniProt O75955 1-427, looked up)
chain: MFFTCGPNEAMVVSGFCRSPPVMVAGGRVFVLPCIQQIQRISLNTLTLNVKSEKVYTRHGVPISVTGIAQVKIQGQNKEMLAAACQMFLGKTEAEIAHIALETLEGHQRAIMAHMTVEEIYKDRQKFSEQVFKVASSDLVNMGISVVSYTLKDIHDDQDYLHSLGKARTAQVQKDARIGEAEAKRDAGIREAKAKQEKVSAQYLSEIEMAKAQRDYELKKAAYDIEVNTRRAQADLAYQLQVAKTKQQIEEQRVQVQVVERAQQVAVQEQEIARREKELEARVRKPAEAERYKLERLAEAEKSQLIMQAEAEAASVRMRGEAEAFAIGARARAEAEQMAKKAEAFQLYQEAAQLDMLLEKLPQVAEEISGPLTSANKITLVSSGSGTMGAAKVTGEVLDILTRLPESVERLTGVSISQVNHKPLRTA
binds: caveolin-1 (human) [7] | [8] | [9] | [10]

B3: calcium-independent membrane phospholipase A2 (iPLA2ß) (enzyme, human, UniProt O60733 1-806, looked up)
chain: MQFFGRLVNTFSGVTNLFSNPFRVKEVAVADYTSSDRVREEGQLILFQNTPNRTWDCVLVNPRNSQSGFRLFQLELEADALVNFHQYSSQLLPFYESSPQVLHTEVLQHLTDLIRNHPSWSVAHLAVELGIRECFHHSRIISCANCAENEEGCTPLHLACRKGDGEILVELVQYCHTQMDVTDYKGETVFHYAVQGDNSQVLQLLGRNAVAGLNQVNNQGLTPLHLACQLGKQEMVRVLLLCNARCNIMGPNGYPIHSAMKFSQKGCAEMIISMDSSQIHSKDPRYGASPLHWAKNAEMARMLLKRGCNVNSTSSAGNTALHVAVMRNRFDCAIVLLTHGANADARGEHGNTPLHLAMSKDNVEMIKALIVFGAEVDTPNDFGETPTFLASKIGRLVTRKAILTLLRTVGAEYCFPPIHGVPAEQGSAAPHHPFSLERAQPPPISLNNLELQDLMHISRARKPAFILGSMRDEKRTHDHLLCLDGGGVKGLIIIQLLIAIEKASGVATKDLFDWVAGTSTGGILALAILHSKSMAYMRGMYFRMKDEVFRGSRPYESGPLEEFLKREFGEHTKMTDVRKPKVMLTGTLSDRQPAELHLFRNYDAPETVREPRFNQNVNLRPPAQPSDQLVWRAARSSGAAPTYFRPNGRFLDGGLLANNPTLDAMTEIHEYNQDLIRKGQANKVKKLSIVVSLGTGRSPQVPVTCVDVFRPSNPWELAKTVFGAKELGKMVVDCCTDPDGRAVDRARAWCEMVGIQYFRLNPQLGTDIMLDEVSDTVLVNALWETEVYIYEHREEFQKLIQLLLSP
not listed: caveolin-1 (human) [3] | [4] | [10]
binds: all other assays above
